We go through three substances from article PMC9935901, “B-lymphoid tyrosine kinase-mediated FAM83A phosphorylation elevates pancreatic tumorigenesis through interacting with β-catenin” (Signal Transduction and Targeted Therapy, 2023).

Sequences of proteins named here, by UniProt entry; tags and fusion partners are left off.
UniProt P51451: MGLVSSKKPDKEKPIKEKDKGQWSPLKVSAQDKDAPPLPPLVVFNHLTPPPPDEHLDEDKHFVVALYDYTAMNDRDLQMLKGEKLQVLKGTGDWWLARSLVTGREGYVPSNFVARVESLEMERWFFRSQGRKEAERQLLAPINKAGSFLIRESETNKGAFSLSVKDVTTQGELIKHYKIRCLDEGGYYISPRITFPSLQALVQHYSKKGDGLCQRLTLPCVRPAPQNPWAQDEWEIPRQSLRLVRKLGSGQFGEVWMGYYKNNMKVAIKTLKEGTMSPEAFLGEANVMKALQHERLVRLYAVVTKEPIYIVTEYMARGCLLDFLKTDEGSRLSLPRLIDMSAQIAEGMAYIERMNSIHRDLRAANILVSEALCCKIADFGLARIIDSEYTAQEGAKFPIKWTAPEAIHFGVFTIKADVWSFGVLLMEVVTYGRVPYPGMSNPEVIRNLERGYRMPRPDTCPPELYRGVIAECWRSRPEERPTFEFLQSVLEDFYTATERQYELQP
UniProt P06241: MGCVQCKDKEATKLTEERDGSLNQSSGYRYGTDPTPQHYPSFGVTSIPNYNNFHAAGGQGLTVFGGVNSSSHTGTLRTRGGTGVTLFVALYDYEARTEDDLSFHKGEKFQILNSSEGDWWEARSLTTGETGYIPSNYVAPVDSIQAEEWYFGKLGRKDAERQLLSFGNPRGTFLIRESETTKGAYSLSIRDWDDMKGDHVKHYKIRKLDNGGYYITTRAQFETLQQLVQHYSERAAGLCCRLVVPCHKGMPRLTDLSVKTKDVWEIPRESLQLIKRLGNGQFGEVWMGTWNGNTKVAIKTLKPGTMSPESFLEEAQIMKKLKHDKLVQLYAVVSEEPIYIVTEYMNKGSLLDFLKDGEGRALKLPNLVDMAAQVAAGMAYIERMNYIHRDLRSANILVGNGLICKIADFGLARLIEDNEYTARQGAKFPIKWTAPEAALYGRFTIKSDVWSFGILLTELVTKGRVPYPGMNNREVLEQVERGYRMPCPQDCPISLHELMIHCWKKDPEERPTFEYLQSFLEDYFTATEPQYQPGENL
UniProt P35222: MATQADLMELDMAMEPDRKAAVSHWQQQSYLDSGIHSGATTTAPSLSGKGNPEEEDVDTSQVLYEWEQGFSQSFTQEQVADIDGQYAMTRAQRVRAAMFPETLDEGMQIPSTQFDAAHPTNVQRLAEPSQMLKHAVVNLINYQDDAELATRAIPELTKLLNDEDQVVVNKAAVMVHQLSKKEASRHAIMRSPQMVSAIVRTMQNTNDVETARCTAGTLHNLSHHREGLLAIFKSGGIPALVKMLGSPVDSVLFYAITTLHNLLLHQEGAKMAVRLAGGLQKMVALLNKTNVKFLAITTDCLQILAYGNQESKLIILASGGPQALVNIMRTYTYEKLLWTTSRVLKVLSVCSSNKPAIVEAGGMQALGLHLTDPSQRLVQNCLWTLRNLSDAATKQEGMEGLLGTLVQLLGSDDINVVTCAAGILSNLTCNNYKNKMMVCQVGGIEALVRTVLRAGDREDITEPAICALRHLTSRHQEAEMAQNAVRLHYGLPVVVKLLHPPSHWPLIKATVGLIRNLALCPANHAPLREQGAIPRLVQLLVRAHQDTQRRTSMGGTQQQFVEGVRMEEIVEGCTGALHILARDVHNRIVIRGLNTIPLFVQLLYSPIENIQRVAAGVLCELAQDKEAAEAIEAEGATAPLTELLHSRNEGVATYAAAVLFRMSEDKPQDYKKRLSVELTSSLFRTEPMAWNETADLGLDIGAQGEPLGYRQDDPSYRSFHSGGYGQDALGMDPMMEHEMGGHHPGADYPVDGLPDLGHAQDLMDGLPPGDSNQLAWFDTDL

No constants are given. Whether binding was seen depends on the method and setting. Binding seen in cells or lysates may run through a third protein. Here binding means that the protein was enriched with, or labelled near, the bait; the list need not be complete. Sequences can lack the tags named with a protein.

In the test the target is T1, Flag-tagged FAM83A (UniProt Q86UY5).
T1 sequence: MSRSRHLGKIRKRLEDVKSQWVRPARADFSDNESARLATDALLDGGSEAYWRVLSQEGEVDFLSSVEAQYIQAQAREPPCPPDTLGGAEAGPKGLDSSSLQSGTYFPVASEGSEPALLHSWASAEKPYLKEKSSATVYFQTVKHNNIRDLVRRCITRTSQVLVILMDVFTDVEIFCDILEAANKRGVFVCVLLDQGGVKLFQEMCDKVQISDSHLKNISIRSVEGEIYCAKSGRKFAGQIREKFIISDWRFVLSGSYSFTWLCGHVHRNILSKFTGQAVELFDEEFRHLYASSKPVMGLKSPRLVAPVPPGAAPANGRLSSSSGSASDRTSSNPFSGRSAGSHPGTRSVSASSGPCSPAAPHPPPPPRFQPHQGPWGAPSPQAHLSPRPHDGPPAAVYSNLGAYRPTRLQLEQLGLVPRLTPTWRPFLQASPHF
Briefly: affinity purification with mass spectrometry; Flag antibody IP from lysates of HEK293T cells transfected with Flag-FAM83A for 48 h; immunoprecipitate sent for LS-MS/MS analysis.

For the substance “BLK (found in the FAM83A immunoprecipitate) (from UniProt P51451 1-505) (enzyme)”, the binding entry is recorded as “binds”.

For the substance “FYN (found in the FAM83A immunoprecipitate) (from UniProt P06241 1-537) (enzyme)”, the binding entry is listed as “binds”.

“endogenous β-catenin (from UniProt P35222 1-781)”: the binding result is “binds”.
